The other results are listed elsewhere or left out.

Sequences of proteins named here, by UniProt entry; tags and fusion partners are left off.
UniProt Q0JBA9, entry or part of it: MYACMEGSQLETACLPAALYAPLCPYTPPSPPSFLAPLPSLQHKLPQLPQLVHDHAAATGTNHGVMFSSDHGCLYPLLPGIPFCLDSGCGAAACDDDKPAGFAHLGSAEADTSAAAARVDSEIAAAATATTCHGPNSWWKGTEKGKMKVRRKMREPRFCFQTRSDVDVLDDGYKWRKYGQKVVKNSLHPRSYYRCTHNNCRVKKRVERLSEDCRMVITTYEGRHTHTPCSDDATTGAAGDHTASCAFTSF

The target in this test is OsWRKY34 (Oryza sativa, UniProt Q0JBA9 1-250). As to the kind of experiment: protein-binding microarray (RPBM); PBS, 2% BSA, 51.3 ng/ul salmon testes DNA, 50 uM zinc acetate, 200 nM TF, 25 C, 1 h; high values mean tight binding. Particulars: protein: recombinant; tags: N-terminal polyhistidine and DsRed monomer fusion (pET32a); label: CyDye5-dUTP incorporated in the synthesized complementary strand; 3' TTTTT single-stranded linker to array surface; dsDNA, one strand shown. In outline:
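Polyhistidine-tagged DsRed fusions of transcription factors, joined at the N-terminus, were expressed in E. coli BL21-CodonPlus and isolated on Ni–NTA. They were incubated at 200 nM for 1 h at 25 °C on a custom Agilent array, double-stranded and BSA-blocked, in PBS with 2% BSA, salmon testes DNA and 50 µM zinc acetate. The binding signal is per-feature fluorescence intensity (arbitrary units) read on an Axon 4000B scanner after washing.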
For the sequence “GCCCAAGTCCCCAGAGCCATCGTCCTATCCAAATTTTACACGGAGTCACCTAGTGCAG”, the binding signal is 8140 fluorescence intensity (a.u.).

Consider “GCGCTCCATCCATGGCTTTCCCGTCTCCGCCCATAAATACCGGAGTCACCTAGTGCAG”, for which the binding signal was 10400 fluorescence intensity (a.u.).

In the case of “ACTTTTTATTTAGGTTTTGTGGCGTGCTGGTAGCTCCTTCCGGAGTCACCTAGTGCAG”, the binding signal is 8680 fluorescence intensity (a.u.).

For the sequence “CCTTGTCCAATGCTTTAGTCGTTGTTTTCTACATTACTCACGGAGTCACCTAGTGCAG”, the binding signal is 11200 fluorescence intensity (a.u.).

For the sequence “ATATACTCCCACCATTTCATAATATAAGGCACAACTTTTTCGGAGTCACCTAGTGCAG”, the binding signal was 9510 fluorescence intensity (a.u.).

“TTCCTTTGAAGGCTAGCATATGTGTGGTGTTTGCAGTCCACGGAGTCACCTAGTGCAG”: the binding signal was 9530 fluorescence intensity (a.u.).

In the case of “TTGCTTCACGTCTCCTCTTCATGTGATCTGAGGCGCTCGCCGGAGTCACCTAGTGCAG”, the binding signal is 8480 fluorescence intensity (a.u.).

Turning to “AGTGGGGCCTACCTGTCAGTGACTCCACCCCTATATTCTCCGGAGTCACCTAGTGCAG”, the binding signal is 9950 fluorescence intensity (a.u.).

Consider “CTTCTTCTTTTTATTTGGCTCCGCTTATAAATTTTATTGTCGGAGTCACCTAGTGCAG”, for which the binding signal is 8670 fluorescence intensity (a.u.).

For the sequence “CCCACGTGGGCCCCACCATTTTTATTAATATGTGTGTGAACGGAGTCACCTAGTGCAG”, the binding signal was 8340 fluorescence intensity (a.u.).

With “GTCCACACCATCTAGCAGTATATGTCCTACGTCAGGATCACGGAGTCACCTAGTGCAG”, the binding signal was 9070 fluorescence intensity (a.u.).

Turning to “CACATTTATACATCTCTCATATACGAGCTTACGAAAAACGCGGAGTCACCTAGTGCAG”, the binding signal is 8070 fluorescence intensity (a.u.).

Consider “TTTCCGTCTCTTTTACCTAAGTCTCGCGTATATCCTAGTACGGAGTCACCTAGTGCAG”, for which the binding signal was 8120 fluorescence intensity (a.u.).

Take “AGCCGTCTCATTTCCGTTTCGACATCCTTCTGAATTTCAACGGAGTCACCTAGTGCAG”: the binding signal is 9220 fluorescence intensity (a.u.).

Turning to “GTAACTGCTTCCTCGTCGTCCCAAATCAAACTTTGCCATGCGGAGTCACCTAGTGCAG”, the binding signal was 9230 fluorescence intensity (a.u.).

In the case of “CTTGAGTATTATATTGTTCGTGTTCCATATTATTTTCTCCCGGAGTCACCTAGTGCAG”, the binding signal is 11100 fluorescence intensity (a.u.).

In the case of “TGTTCAAAGTCAAACTACTCTAAGTTTGACTAAGTTTATACGGAGTCACCTAGTGCAG”, the binding signal is 13000 fluorescence intensity (a.u.).

As for “GGGAAGAAGAATCCGGATTCTGTTGCGGTGGTTGTTGGAACGGAGTCACCTAGTGCAG”, the binding signal is 9380 fluorescence intensity (a.u.).

On to “ACAATCCCTACTCCCACCCGCGCATCTTCGTAATATTCGCCGGAGTCACCTAGTGCAG”, for which the binding signal was 9390 fluorescence intensity (a.u.).

As for “CCCGCCCGCACGCACGCATCCACCCACCCACGACCAGCGCCGGAGTCACCTAGTGCAG”, the binding signal was 8180 fluorescence intensity (a.u.).

In the case of “CTGTTCCAACTTTAATCTCTCCAGCCGATTCCTTCCATCACGGAGTCACCTAGTGCAG”, the binding signal is 8680 fluorescence intensity (a.u.).

As to “AGCGCCACAATTTCCAATTCCCTGCAGATCCCTTCATCTCCGGAGTCACCTAGTGCAG”, the binding signal is 9910 fluorescence intensity (a.u.).

Turning to “ATGCTACCTGAATCCCTCTGTCTCTGCCGCTGTAGCGCCGCGGAGTCACCTAGTGCAG”, the binding signal was 10900 fluorescence intensity (a.u.).

Turning to “GGACCAAGTCTACATGTCATGTCATCGGAAATCACTCCCGCGGAGTCACCTAGTGCAG”, the binding signal was 8340 fluorescence intensity (a.u.).

Take “CTCTGAATGGCCTTGTCACCCTTTTTATTCATTCATGCTCCGGAGTCACCTAGTGCAG”: the binding signal is 9200 fluorescence intensity (a.u.).

As for “GATATGTCTCATGGACACATACTAATCGCACTATACTGTACGGAGTCACCTAGTGCAG”, the binding signal is 9100 fluorescence intensity (a.u.).

Turning to “GTGTCTGTCACCTGCAGGATTTGTAGTTGAATGTAGCATGCGGAGTCACCTAGTGCAG”, the binding signal is 8140 fluorescence intensity (a.u.).

In the case of “TCAGTTTGTTTGTCATCCCTATATCACAATGATTTTCGGCCGGAGTCACCTAGTGCAG”, the binding signal is 8480 fluorescence intensity (a.u.).

Turning to “TTTATTCGTACTGCGTCGCCATCCTTGGATAGTGGTTAGTCGGAGTCACCTAGTGCAG”, the binding signal is 8450 fluorescence intensity (a.u.).

Take “CTCGCGTCGCCTCGGGAGCCACCGTCGCCGGCCGCGCGCGCGGAGTCACCTAGTGCAG”: the binding signal was 9160 fluorescence intensity (a.u.).

Turning to “GCTGGTACCCTTATGGTTGATCTGTAGTAGTCATCATCACCGGAGTCACCTAGTGCAG”, the binding signal was 11900 fluorescence intensity (a.u.).

Turning to “TCTCCAGTCCTTGTTCGCCACGACACGTCTTACTTGACTGCGGAGTCACCTAGTGCAG”, the binding signal was 11300 fluorescence intensity (a.u.).

Take “CGTCCTCGGTCACTTTTATTCTATTGACGTAACCGAGGTCCGGAGTCACCTAGTGCAG”: the binding signal is 8070 fluorescence intensity (a.u.).

As to “CTTGTTCTTGCCCAATCCTAGTAGAAGCGCCTAACTTGTCCGGAGTCACCTAGTGCAG”, the binding signal is 9450 fluorescence intensity (a.u.).

As for “CTCTCCTGTATCTCAAGTCTAATGTTGCAATCACTGACTGCGGAGTCACCTAGTGCAG”, the binding signal is 8820 fluorescence intensity (a.u.).

For the sequence “ACGCACCACCCGTACTACGTGCCCACCCGCGCGCGCGCCGCGGAGTCACCTAGTGCAG”, the binding signal was 8220 fluorescence intensity (a.u.).

Regarding “TCGACTTACTGACCTGGCCGGTTCCATATCTCCTAGATCACGGAGTCACCTAGTGCAG”, the binding signal was 9550 fluorescence intensity (a.u.).

For the sequence “ATCTTGTCAGTGCTGGTCTATCTCGATTCATGATTCTCTCCGGAGTCACCTAGTGCAG”, the binding signal was 10500 fluorescence intensity (a.u.).

For the sequence “ATTAATATATGGTCACACCTGTAATACACACATTGTGTCTCGGAGTCACCTAGTGCAG”, the binding signal is 8310 fluorescence intensity (a.u.).

Turning to “GTGAAGCGATCTGTATTGGTGGAGGGGAGGGGAGGGGATGCGGAGTCACCTAGTGCAG”, the binding signal was 24000 fluorescence intensity (a.u.).

For the sequence “TTGCTATGTTCCATGGAGTTGCTATCTTTACCTGTGTTACCGGAGTCACCTAGTGCAG”, the binding signal is 10400 fluorescence intensity (a.u.).

Consider “TAGGTGTTGCTACTCGCCATTGTCTCATCACGCTCCGCCTCGGAGTCACCTAGTGCAG”, for which the binding signal is 10500 fluorescence intensity (a.u.).

On to “AACTTCTTAGGTTCTAATCAAACACTTAATTTATCTTTTCCGGAGTCACCTAGTGCAG”, for which the binding signal was 8420 fluorescence intensity (a.u.).

For the sequence “GACGTAGTAGCCAATTTATAGACCGATTTTGTTCTGTTTTCGGAGTCACCTAGTGCAG”, the binding signal was 9100 fluorescence intensity (a.u.).

Turning to “AGCCACTTGTCCATTTTCCCCGTGCTTTGCGGTCGAGAGACGGAGTCACCTAGTGCAG”, the binding signal is 10100 fluorescence intensity (a.u.).

On to “CTATCTCTCCAACCAAACACTGTCGTATCATCCCACGTGTCGGAGTCACCTAGTGCAG”, for which the binding signal is 8090 fluorescence intensity (a.u.).

Take “GCGATGTCGGTGTGTGGGTGGTGGTATATTTTTCCTTTTTCGGAGTCACCTAGTGCAG”: the binding signal is 18000 fluorescence intensity (a.u.).

With “GCTGGGGAGGGGATGGATGCGGCGGCCGGCAACTCCTCTTCGGAGTCACCTAGTGCAG”, the binding signal is 8850 fluorescence intensity (a.u.).

“ACTTGTATTCTTCCTCGTCTTCCTCTTCTGTATTTCTGGTCGGAGTCACCTAGTGCAG”: the binding signal was 8140 fluorescence intensity (a.u.).

As to “TTGCCGCCTTCTCTCGGTTTGATTGTTGGCGGTTCTTGATCGGAGTCACCTAGTGCAG”, the binding signal was 9630 fluorescence intensity (a.u.).

In the case of “GTTTCAGCTTTCAATTTGGAGTTGATTTTGGGTCTTTTCACGGAGTCACCTAGTGCAG”, the binding signal was 8870 fluorescence intensity (a.u.).

As for “TTCATTAAATTTAACGTTGACTATATTTTAATACAATATTCGGAGTCACCTAGTGCAG”, the binding signal was 9500 fluorescence intensity (a.u.).

“CCCGTGCCGGGCCGGGCCGTGCCGCCCGTTTGGACACCTCCGGAGTCACCTAGTGCAG”: the binding signal was 9460 fluorescence intensity (a.u.).

In the case of “CGTCGACCACCGTTTTCTTGGCCCCGTCTCGCCGCGATCTCGGAGTCACCTAGTGCAG”, the binding signal was 13900 fluorescence intensity (a.u.).
